In US20230365714A1:
No constants are given. Whether binding was seen depends on the method and setting. Some entries that bind do so weakly or less than the wild type.

Protein sequences, listed by entry. Tags and fused reporters are not part of them. Lines headed by an entry give the natural chain unless they say otherwise; changes in a name come on top.
UniProt Q01974: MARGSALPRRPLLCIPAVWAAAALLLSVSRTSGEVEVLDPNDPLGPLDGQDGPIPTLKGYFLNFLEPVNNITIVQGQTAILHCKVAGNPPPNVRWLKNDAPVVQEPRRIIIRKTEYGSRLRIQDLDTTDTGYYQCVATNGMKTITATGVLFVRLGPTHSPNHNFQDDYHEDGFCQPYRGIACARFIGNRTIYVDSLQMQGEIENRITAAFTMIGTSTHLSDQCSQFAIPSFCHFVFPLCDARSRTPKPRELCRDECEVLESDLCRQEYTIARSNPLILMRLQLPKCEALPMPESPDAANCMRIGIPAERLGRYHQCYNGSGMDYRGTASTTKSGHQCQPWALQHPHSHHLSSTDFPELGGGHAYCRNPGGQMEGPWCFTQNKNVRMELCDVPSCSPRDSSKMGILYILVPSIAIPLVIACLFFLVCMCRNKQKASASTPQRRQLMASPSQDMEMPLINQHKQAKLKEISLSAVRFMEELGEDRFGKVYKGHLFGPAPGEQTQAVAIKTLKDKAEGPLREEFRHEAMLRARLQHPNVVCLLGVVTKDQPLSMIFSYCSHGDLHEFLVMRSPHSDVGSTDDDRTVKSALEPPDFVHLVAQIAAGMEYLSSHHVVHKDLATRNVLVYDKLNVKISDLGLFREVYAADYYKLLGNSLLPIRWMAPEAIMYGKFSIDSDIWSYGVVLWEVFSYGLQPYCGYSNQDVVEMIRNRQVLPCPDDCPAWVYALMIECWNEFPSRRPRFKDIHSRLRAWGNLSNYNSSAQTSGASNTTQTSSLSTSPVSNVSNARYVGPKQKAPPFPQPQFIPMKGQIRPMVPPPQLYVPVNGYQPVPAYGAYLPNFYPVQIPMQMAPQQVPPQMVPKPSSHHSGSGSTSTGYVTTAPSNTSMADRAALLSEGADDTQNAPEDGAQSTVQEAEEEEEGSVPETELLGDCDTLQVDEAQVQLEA

Key:
[1] = target: human (Homo sapiens) ROR2, full length, on cells (human) (UniProt Q01974); experiment: flow cytometry on HeLa cells
[2] = target: human (Homo sapiens) ROR2, full length, on cells (human) (UniProt Q01974); experiment: flow cytometry on Calu-1 cells with and without ablation of ROR2

binding [1]: binds
binding [2]: binds
B1: chIgG1-ROR2-A (antibody, V domains shown)
VH: QSVEESGGRLVTPGTPLTLTCTVSGFSLSSYSMSWVRQAPGKGLEWIGVIYVNSKTWYANWAKGRFTISKTSTTVDLKITSPTTEDTATYFCARGDAGYTTNSWLWGPGTLVTVSS
VL: AFELTQTPASVSEPVGGTVTIKCQASESIDNYCSWYQQKPGQPPKLLIYQAFKLASGVPSRFRGSGSGTQFTLTISDLESDDAATYYCQSYSGISTTAFGGGTEVVVK
